# Test: Removal of formaldehyde from the air in a sealed stainless steel box, compared with activated carbon
structure (smiles),measurement,setting,value
[K+].[K+].[O-]c1ccccc1-c1ccccc1[O-] [ortho-bisphenol potassium],concentration of formaldehyde in the air,"time 0 hour (initial), 500 ml of 5% water solution pH=10 or 500 grams activated carbon in sealed box",10 ppm
same,concentration of formaldehyde in the air,"time 1 hour, initial 10 ppm, 500 ml of 5% water solution pH=10 or 500 grams activated carbon",8.2 ppm
same,concentration of formaldehyde in the air,"time 2 hour, initial 10 ppm, 500 ml of 5% water solution pH=10 or 500 grams activated carbon",6.3 ppm
same,concentration of formaldehyde in the air,"time 3 hour, initial 10 ppm, 500 ml of 5% water solution pH=10 or 500 grams activated carbon",5.1 ppm
same,concentration of formaldehyde in the air,"time 4 hour, initial 10 ppm, 500 ml of 5% water solution pH=10 or 500 grams activated carbon",2.8 ppm
same,concentration of formaldehyde in the air,"time 5 hour, initial 10 ppm, 500 ml of 5% water solution pH=10 or 500 grams activated carbon",1.6 ppm

# Reference: US20160198705A1, “APPLICATION OF BISPHENOL SALT IN PREPARING DISINFECTANT USED FOR STERILIZATION OR FORMALDEHYDE REMOVAL” (NINGBO YUCHEN ENVIROCLEAN TECH CO., LTD., priority 2013, published 2016)
